Patent US7732416B2, “Avermectins substituted in the 4″-position having pesticidal properties” (Merial Limited, priority 2001, dated 2010)
Some of these results come from one statement about several compounds together.

Tests used:
Type in all cases: in vivo
[1] = tested on: Spodoptera littoralis; assay: Example B1 Activity against Spodoptera littoralis (sprayed soya bean plants); conditions: 12.5 ppm spray liquor, first-stage caterpillars, 3 days
[2] = tested on: Heliothis virescens; assay: Example B3 Activity against Heliothis virescens (eggs on filter paper); conditions: 0.8 ml test solution on 0- to 24-hour-old eggs, evaluation after 6 days
[3] = tested on: Tetranychus urticae; assay: Example B7 Activity against Tetranychus urticae (sprayed bean plants); conditions: 12.5 ppm spray liquor, mixed population, 25° C., 6 days
[4] = tested on: Spodoptera littoralis; assay: Example B2 Activity against Spodoptera littoralis, systemic (maize seedlings); conditions: maize seedlings 6 days in test solution, L1 larvae on cut leaves, 4 days
[5] = tested on: Frankliniella occidentalis; assay: Example B5 Activity against Frankliniella occidentalis (bean leaf discs); conditions: bean leaf discs sprayed with test solution, mixed population, 10 days
[6] = tested on: Diabrotica balteata; assay: Example B6 Activity against Diabrotica balteata (sprayed maize seedlings); conditions: 12.5 ppm spray liquor, second-stage larvae, 6 days
[7] = tested on: Plutella xylostella; assay: Example B4 Activity against Plutella xylostella caterpillars (sprayed cabbage plants); conditions: 12.5 ppm spray liquor, first-stage caterpillars, 3 days

Measured: reduction in the pest population

CCC(C)[C@H]1O[C@]2(C=C[C@@H]1C)C[C@@H]1C[C@@H](C/C=C(\C)[C@@H](O[C@H]3C[C@H](OC)[C@@H](O[C@H]4C[C@H](OC)[C@H](N(C)Cc5cc(C(F)(F)F)cc(C(F)(F)F)c5)[C@H](C)O4)[C@H](C)O3)C(C)/C=C/C=C3\CO[C@@H]4[C@H](O)C(C)=C[C@@H](C(=O)O1)[C@]34O)O2 (stereo partly shown) [2.071]
more than 80%: [1] | [2] | [3] | [4] | [5]

CCC(C)[C@H]1O[C@]2(C=C[C@@H]1C)C[C@@H]1C[C@@H](C/C=C(\C)[C@@H](O[C@H]3C[C@H](OC)[C@@H](O[C@H]4C[C@H](OC)[C@H](N(C/C=C/C#CC(C)(C)C)C/C=C/C#CC(C)(C)C)[C@H](C)O4)[C@H](C)O3)C(C)/C=C/C=C3\CO[C@@H]4[C@H](O)C(C)=C[C@@H](C(=O)O1)[C@]34O)O2 (stereo partly shown) [3.012]
more than 80%: [1] | [3] | [4] | [5]

CCC(C)C1OC2(C=CC1C)CC1CC(CC=C(C)C(OC3CC(OC)C(OC4CC(OC)C(N(C)Cc5cccc(Cl)c5Cl)C(C)O4)C(C)O3)C(C)C=CC=C3COC4C(O)C(C)=CC(C(=O)O1)C34O)O2 (stereo not shown) [2.040]
more than 80%: [1] | [2] | [3] | [4] | [5]

CCC(C)C1OC2(C=CC1C)CC1CC(CC=C(C)C(OC3CC(OC)C(OC4CC(OC)C(N(C)Cc5cc(Br)cc(Br)c5)C(C)O4)C(C)O3)C(C)C=CC=C3COC4C(O)C(C)=CC(C(=O)O1)C34O)O2 (stereo not shown) [2.038]
more than 80%: [1] | [2] | [3] | [4] | [5]

CCC(C)[C@H]1O[C@]2(C=C[C@@H]1C)C[C@@H]1C[C@@H](C/C=C(\C)[C@@H](O[C@H]3C[C@H](OC)[C@@H](O[C@H]4C[C@H](OC)[C@H](N(C)Cc5ccc(C(F)(F)F)cc5C(F)(F)F)[C@H](C)O4)[C@H](C)O3)C(C)/C=C/C=C3\CO[C@@H]4[C@H](O)C(C)=C[C@@H](C(=O)O1)[C@]34O)O2 (stereo partly shown) [2.072]
more than 80%: [1] | [3] | [4] | [5]

CCC(C)C1OC2(C=CC1C)CC1CC(CC=C(C)C(OC3CC(OC)C(OC4CC(OC)C(N(C)Cc5c(F)cccc5F)C(C)O4)C(C)O3)C(C)C=CC=C3COC4C(O)C(C)=CC(C(=O)O1)C34O)O2 (stereo not shown) [2.047]
more than 80%: [1] | [2] | [3] | [4] | [5]

CCC(C)C1OC2(C=CC1C)CC1CC(CC=C(C)C(OC3CC(OC)C(OC4CC(OC)C(NCc5cccc(O)c5O)C(C)O4)C(C)O3)C(C)C=CC=C3COC4C(O)C(C)=CC(C(=O)O1)C34O)O2 (stereo not shown) [1.018]
more than 80%: [6] | [7] | [1] | [2] | [3] | [4]

CCC(C)[C@H]1O[C@]2(C=C[C@@H]1C)C[C@@H]1C[C@@H](C/C=C(\C)[C@@H](O[C@H]3C[C@H](OC)[C@@H](O[C@H]4C[C@H](OC)[C@H](NCC5CC=CCC5)[C@H](C)O4)[C@H](C)O3)C(C)/C=C/C=C3\CO[C@@H]4[C@H](O)C(C)=C[C@@H](C(=O)O1)[C@]34O)O2 (stereo partly shown) [1.104]
more than 80%: [6] | [7] | [1] | [2] | [3] | [4]

CCC(C)[C@H]1O[C@]2(C=C[C@@H]1C)C[C@@H]1C[C@@H](C/C=C(\C)[C@@H](O[C@H]3C[C@H](OC)[C@@H](O[C@H]4C[C@H](OC)[C@H](NCc5ccc([N+](=O)[O-])c(O)c5)[C@H](C)O4)[C@H](C)O3)C(C)/C=C/C=C3\CO[C@@H]4[C@H](O)C(C)=C[C@@H](C(=O)O1)[C@]34O)O2 (stereo partly shown) [1.099]
more than 80%: [6] | [7] | [1] | [2] | [3] | [4]

CCC(C)C1OC2(C=CC1C)CC1CC(CC=C(C)C(OC3CC(OC)C(OC4CC(OC)C(NCc5ccc(OC(C)=O)cc5)C(C)O4)C(C)O3)C(C)C=CC=C3COC4C(O)C(C)=CC(C(=O)O1)C34O)O2 (stereo not shown) [1.128]
more than 80%: [6] | [7] | [1] | [2] | [3] | [4]

CCC(C)C1OC2(C=CC1C)CC1CC(CC=C(C)C(OC3CC(OC)C(OC4CC(OC)C(NCc5cccc(OC)c5O)C(C)O4)C(C)O3)C(C)C=CC=C3COC4C(O)C(C)=CC(C(=O)O1)C34O)O2 (stereo not shown) [1.002]
more than 80%: [6] | [7] | [1] | [2] | [3] | [4]

CCC(C)[C@H]1O[C@]2(C=C[C@@H]1C)C[C@@H]1C[C@@H](C/C=C(\C)[C@@H](O[C@H]3C[C@H](OC)[C@@H](O[C@H]4C[C@H](OC)[C@H](N5CCCC5)[C@H](C)O4)[C@H](C)O3)C(C)/C=C/C=C3\CO[C@@H]4[C@H](O)C(C)=C[C@@H](C(=O)O1)[C@]34O)O2 (stereo partly shown) [3.002]
more than 80%: [6] | [7] | [1] | [2] | [3] | [4]

CCC(C)C1OC2(C=CC1C)CC1CC(CC=C(C)C(OC3CC(OC)C(OC4CC(OC)C(NC(C)C(OC)OC)C(C)O4)C(C)O3)C(C)C=CC=C3COC4C(O)C(C)=CC(C(=O)O1)C34O)O2 (stereo not shown) [1.057]
more than 80%: [6] | [7] | [1] | [2] | [3] | [4]

CCC(C)C1OC2(C=CC1C)CC1CC(CC=C(C)C(OC3CC(OC)C(OC4CC(OC)C(NCc5cc6c(cc5[N+](=O)[O-])OCO6)C(C)O4)C(C)O3)C(C)C=CC=C3COC4C(O)C(C)=CC(C(=O)O1)C34O)O2 (stereo not shown) [1.014]
more than 80%: [6] | [7] | [1] | [2] | [3] | [4]

CCC(C)C1OC2(C=CC1C)CC1CC(CC=C(C)C(OC3CC(OC)C(OC4CC(OC)C(NCc5ccc(OCCCN(C)C)cc5)C(C)O4)C(C)O3)C(C)C=CC=C3COC4C(O)C(C)=CC(C(=O)O1)C34O)O2 (stereo not shown) [1.149]
more than 80%: [6] | [7] | [1] | [2] | [3] | [4]

CCOC(=O)CNC1C(C)OC(OC2C(C)OC(OC3C(C)=CCC4CC(CC5(C=CC(C)C(C(C)CC)O5)O4)OC(=O)C4C=C(C)C(O)C5OCC(=CC=CC3C)C45O)CC2OC)CC1OC (stereo not shown) [1.046]
more than 80%: [6] | [7] | [1] | [2] | [3] | [4]

CCC(C)[C@H]1O[C@]2(C=C[C@@H]1C)C[C@@H]1C[C@@H](C/C=C(\C)[C@@H](O[C@H]3C[C@H](OC)[C@@H](O[C@H]4C[C@H](OC)[C@H](NCc5cccc(F)c5F)[C@H](C)O4)[C@H](C)O3)C(C)/C=C/C=C3\CO[C@@H]4[C@H](O)C(C)=C[C@@H](C(=O)O1)[C@]34O)O2 (stereo partly shown) [1.095]
more than 80%: [6] | [7] | [1] | [2] | [3] | [4]

CCC(C)[C@H]1O[C@]2(C=C[C@@H]1C)C[C@@H]1C[C@@H](C/C=C(\C)[C@@H](O[C@H]3C[C@H](OC)[C@@H](O[C@H]4C[C@H](OC)[C@H](NCc5cc(Br)c(O)c(OC)c5)[C@H](C)O4)[C@H](C)O3)C(C)/C=C/C=C3\CO[C@@H]4[C@H](O)C(C)=C[C@@H](C(=O)O1)[C@]34O)O2 (stereo partly shown) [1.118]
more than 80%: [6] | [7] | [1] | [2] | [3] | [4]
